Results on two compounds are retold here after patent US20160120186A1, “ENHANCEMENT AND CONTROL OF SEED GERMINATION WITH COMPOSITIONS COMPRISING A TRANSITION METAL CATALYST AND AN OXIDANT” (UNIVERSITY OF SASKATCHEWAN, priority 2013, published 2016).

The series can be described thus: Dissolved oxygen release by catalytic medium. The following applies: FIG. 3C; 10 mg catalyst in citrate-buffered water pH 3.8 with 0.35% v/v hydrogen peroxide.

For `O=S(=O)([O-])[O-].[Fe+2]` [FeSO4], the “production of oxygen in the reaction medium” value is “catalysed the production of oxygen”.
For `O=S(=O)([O-])[O-].[Cu+2]` [CuSO4] the value was “catalysed the production of oxygen”.
